Test results published in publication PMC10298087.
No constants are given. Whether binding was seen depends on the method and setting. In cells and extracts the contact can be indirect. These calls come from enrichment with a bait or labelling near it, and not all partners need be listed.

Amino acid sequences for entries named in this document (tags omitted).
UniProt Q9BS34: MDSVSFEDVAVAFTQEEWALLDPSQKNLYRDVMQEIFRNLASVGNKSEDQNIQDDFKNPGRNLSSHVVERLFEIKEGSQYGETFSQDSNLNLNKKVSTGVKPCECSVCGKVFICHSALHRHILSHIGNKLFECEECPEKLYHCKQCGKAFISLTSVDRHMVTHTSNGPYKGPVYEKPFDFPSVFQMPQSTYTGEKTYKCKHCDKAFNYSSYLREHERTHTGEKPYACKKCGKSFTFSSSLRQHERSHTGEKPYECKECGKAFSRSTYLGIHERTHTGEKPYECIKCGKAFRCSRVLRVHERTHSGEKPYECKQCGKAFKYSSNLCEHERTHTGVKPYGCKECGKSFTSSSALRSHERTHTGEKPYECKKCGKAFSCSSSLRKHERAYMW
UniProt Q969W8: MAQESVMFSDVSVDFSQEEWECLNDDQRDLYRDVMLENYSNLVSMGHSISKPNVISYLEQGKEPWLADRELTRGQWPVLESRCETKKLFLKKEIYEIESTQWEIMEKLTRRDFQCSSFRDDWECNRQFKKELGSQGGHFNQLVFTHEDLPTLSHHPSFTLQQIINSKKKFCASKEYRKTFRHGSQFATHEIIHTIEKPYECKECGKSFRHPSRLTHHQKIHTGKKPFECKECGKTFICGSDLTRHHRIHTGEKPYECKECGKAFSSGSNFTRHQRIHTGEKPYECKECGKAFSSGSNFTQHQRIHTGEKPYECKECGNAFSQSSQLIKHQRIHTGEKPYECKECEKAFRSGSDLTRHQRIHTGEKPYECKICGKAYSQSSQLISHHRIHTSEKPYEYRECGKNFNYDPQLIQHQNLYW
UniProt Q7Z7K6: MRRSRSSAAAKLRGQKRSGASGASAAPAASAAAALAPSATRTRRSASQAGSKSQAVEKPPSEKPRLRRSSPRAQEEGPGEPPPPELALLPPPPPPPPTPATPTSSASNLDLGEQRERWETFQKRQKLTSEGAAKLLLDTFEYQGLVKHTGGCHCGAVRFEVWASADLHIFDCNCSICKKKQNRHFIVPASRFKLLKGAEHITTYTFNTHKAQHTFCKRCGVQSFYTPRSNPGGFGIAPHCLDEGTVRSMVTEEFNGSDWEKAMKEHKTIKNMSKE
UniProt P17019: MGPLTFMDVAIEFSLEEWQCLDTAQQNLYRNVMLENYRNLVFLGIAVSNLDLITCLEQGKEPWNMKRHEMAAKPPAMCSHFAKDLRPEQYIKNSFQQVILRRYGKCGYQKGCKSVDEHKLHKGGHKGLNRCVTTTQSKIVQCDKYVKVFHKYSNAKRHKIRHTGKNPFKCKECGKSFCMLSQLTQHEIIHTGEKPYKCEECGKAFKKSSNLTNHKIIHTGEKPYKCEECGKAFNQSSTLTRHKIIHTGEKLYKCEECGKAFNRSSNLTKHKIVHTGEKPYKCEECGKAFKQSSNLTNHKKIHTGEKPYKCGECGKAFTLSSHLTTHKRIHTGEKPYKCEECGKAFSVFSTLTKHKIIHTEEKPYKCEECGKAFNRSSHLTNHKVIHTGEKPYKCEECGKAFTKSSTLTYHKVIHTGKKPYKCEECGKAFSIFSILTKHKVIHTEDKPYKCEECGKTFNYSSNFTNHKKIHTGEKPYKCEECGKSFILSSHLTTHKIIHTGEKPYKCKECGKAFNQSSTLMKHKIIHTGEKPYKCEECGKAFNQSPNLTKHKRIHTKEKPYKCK
UniProt Q0VGE8: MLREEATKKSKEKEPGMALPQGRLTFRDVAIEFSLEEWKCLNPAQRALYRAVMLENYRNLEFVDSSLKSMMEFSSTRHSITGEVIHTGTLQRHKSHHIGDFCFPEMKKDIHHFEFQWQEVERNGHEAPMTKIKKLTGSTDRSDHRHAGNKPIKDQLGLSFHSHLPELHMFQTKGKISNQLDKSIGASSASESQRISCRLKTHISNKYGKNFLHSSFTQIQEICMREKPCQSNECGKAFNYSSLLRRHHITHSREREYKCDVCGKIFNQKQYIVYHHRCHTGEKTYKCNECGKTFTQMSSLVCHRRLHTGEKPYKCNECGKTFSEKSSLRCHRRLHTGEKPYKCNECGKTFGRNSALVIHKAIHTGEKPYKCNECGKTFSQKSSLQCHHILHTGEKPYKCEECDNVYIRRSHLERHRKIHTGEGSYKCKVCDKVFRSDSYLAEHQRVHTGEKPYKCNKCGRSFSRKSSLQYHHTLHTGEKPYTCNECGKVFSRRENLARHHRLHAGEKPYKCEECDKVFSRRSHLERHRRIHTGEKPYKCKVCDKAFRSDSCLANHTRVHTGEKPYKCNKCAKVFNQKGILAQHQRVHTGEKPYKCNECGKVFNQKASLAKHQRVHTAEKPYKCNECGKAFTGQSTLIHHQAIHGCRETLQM
UniProt Q14593: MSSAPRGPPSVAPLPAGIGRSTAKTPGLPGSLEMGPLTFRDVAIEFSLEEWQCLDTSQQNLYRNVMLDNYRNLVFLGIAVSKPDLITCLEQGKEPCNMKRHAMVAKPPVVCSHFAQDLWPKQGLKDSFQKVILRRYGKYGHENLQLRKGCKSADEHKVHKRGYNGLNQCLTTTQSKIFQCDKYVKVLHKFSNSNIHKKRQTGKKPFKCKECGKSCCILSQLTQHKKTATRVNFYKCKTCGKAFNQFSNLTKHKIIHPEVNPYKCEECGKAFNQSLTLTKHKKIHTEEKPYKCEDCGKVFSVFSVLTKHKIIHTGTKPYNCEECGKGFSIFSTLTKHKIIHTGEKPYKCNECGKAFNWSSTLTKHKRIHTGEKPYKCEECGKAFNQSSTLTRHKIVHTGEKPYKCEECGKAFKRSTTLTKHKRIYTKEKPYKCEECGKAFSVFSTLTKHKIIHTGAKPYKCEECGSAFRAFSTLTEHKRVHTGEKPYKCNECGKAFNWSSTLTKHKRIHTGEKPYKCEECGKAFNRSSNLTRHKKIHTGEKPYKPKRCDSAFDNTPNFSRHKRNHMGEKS
UniProt Q8NE65: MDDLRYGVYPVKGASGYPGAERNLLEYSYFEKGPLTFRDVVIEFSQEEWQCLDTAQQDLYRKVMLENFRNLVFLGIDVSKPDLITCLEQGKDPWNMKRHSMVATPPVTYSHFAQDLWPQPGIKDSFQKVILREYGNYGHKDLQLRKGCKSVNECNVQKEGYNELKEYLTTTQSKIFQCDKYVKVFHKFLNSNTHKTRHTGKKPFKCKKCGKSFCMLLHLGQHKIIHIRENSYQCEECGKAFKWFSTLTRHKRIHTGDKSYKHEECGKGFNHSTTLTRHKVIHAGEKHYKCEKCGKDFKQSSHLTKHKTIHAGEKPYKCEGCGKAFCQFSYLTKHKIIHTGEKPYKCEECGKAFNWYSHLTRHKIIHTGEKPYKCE
UniProt P51814: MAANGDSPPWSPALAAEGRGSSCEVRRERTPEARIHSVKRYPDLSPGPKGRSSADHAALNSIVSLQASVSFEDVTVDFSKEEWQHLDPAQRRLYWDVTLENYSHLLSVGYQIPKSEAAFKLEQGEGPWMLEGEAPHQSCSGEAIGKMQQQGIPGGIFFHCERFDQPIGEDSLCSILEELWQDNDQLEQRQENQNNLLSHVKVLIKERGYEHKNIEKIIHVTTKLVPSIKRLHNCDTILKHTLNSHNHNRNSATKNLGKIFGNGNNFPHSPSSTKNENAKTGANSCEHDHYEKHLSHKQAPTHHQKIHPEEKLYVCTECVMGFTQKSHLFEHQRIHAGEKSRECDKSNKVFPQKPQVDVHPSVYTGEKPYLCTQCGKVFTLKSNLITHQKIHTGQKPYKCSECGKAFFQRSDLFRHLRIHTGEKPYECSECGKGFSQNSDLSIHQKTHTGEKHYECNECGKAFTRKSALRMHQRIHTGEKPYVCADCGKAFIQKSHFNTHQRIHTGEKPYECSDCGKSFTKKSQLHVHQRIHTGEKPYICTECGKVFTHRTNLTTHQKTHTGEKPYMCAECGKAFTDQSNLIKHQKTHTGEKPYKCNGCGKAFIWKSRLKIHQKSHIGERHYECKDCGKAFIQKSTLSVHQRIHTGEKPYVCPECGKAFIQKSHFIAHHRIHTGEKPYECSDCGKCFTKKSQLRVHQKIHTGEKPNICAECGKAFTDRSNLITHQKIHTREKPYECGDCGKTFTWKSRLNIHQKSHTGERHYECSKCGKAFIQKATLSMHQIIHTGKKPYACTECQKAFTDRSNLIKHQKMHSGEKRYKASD
UniProt Q15776: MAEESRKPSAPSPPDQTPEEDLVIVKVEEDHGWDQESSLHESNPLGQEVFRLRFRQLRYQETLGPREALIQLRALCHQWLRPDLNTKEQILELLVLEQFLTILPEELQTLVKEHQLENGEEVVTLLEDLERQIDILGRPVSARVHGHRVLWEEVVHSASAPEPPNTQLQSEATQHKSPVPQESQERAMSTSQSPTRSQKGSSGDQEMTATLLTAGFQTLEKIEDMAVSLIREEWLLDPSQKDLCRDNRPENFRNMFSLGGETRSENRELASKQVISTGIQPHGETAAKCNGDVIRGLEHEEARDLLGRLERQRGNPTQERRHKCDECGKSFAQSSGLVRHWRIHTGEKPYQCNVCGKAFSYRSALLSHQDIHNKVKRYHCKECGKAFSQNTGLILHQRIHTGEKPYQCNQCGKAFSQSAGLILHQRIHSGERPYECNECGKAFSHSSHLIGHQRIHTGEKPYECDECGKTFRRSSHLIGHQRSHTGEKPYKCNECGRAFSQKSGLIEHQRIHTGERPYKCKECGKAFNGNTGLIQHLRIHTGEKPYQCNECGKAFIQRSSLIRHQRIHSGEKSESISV
UniProt P16415: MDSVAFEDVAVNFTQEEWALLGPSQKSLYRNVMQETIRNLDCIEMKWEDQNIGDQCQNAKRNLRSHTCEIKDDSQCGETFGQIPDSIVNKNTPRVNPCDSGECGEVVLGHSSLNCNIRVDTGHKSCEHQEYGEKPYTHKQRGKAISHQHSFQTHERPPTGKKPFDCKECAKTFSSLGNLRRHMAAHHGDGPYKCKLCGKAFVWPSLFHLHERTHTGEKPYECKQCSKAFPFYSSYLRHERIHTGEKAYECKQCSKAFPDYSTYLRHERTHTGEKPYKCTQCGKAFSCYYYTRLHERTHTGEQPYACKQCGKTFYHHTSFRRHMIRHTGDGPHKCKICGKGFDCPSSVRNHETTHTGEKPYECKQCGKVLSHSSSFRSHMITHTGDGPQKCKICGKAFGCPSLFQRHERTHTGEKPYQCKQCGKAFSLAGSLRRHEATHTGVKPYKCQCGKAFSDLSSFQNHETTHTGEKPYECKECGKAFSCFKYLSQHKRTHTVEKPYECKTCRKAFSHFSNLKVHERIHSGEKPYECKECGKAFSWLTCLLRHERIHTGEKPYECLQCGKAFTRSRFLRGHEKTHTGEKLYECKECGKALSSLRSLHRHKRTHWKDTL
UniProt Q32M78: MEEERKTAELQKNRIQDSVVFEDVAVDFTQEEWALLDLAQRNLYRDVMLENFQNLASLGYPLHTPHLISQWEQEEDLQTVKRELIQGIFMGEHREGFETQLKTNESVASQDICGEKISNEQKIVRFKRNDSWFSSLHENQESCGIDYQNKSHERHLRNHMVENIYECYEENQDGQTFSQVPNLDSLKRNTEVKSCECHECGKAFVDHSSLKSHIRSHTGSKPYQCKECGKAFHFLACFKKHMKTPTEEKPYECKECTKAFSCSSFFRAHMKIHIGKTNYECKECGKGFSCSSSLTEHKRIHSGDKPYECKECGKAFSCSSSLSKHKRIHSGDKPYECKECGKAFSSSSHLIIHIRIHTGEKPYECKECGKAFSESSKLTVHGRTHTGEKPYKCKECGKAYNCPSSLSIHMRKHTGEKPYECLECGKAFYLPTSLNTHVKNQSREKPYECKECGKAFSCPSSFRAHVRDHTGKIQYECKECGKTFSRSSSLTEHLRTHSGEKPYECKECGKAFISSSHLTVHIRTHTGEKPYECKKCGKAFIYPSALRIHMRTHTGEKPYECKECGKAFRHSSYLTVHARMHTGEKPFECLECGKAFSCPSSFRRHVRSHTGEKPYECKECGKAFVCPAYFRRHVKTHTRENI
UniProt Q96N22: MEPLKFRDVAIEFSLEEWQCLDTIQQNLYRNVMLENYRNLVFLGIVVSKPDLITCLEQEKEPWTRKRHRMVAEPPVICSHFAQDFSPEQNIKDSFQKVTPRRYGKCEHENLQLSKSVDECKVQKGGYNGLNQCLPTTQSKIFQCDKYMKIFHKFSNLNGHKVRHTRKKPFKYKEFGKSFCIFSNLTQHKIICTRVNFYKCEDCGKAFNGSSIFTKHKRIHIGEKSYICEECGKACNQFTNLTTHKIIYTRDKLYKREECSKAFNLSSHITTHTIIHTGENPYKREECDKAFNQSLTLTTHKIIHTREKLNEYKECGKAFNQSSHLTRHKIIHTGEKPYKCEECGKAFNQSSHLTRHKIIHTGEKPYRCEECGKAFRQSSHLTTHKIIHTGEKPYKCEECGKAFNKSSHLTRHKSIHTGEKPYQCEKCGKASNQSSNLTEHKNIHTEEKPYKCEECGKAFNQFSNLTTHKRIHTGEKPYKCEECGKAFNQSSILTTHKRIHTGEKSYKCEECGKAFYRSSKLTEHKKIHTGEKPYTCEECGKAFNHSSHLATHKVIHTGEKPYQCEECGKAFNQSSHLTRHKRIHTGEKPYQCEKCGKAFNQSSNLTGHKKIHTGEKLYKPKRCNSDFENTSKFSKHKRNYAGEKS

How the values were obtained:
[1] = target: T1, TRIM28-K304Q (endogenous, knock-in K562 clone Q1) (human (endogenous in K562)) (UniProt Q13263); test: affinity purification with mass spectrometry; IP of endogenous TRIM28 or TRIM28-K304Q from K562 cells with anti-TRIM28-N-conjugated protein A beads; washed, eluted with the antibody-generating peptide; MS (LTQ-Orbitrap Velos, Mascot)
T1 sequence: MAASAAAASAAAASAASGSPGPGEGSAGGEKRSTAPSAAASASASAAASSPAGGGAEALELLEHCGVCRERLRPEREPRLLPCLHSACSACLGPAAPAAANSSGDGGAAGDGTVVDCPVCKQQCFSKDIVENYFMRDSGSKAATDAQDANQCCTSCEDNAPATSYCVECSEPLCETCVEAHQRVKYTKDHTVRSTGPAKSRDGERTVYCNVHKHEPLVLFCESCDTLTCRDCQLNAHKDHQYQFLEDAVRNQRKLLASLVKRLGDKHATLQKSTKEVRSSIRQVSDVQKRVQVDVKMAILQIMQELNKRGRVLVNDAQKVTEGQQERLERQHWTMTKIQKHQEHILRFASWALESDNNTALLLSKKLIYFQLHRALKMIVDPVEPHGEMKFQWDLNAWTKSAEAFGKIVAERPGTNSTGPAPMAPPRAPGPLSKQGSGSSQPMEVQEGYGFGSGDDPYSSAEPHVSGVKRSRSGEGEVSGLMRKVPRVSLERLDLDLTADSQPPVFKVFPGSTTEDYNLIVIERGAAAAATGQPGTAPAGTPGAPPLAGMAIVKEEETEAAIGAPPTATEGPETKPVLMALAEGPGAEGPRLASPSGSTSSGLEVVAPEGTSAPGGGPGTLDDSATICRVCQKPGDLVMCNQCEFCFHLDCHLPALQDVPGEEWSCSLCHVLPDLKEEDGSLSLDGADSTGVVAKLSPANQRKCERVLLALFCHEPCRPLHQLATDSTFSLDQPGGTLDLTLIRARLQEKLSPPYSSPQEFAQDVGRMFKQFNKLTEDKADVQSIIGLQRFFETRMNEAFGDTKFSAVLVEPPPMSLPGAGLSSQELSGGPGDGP

[2] = target: wild-type TRIM28 (endogenous, K562 cells) (human (endogenous in K562)) (UniProt Q13263); test: as above

Row | binding [1] | binding [2] | Substance
1 | binds | binds | ZNF680 (from UniProt Q8NEM1 1-530)
2 | binds | binds | ZNF689 (from UniProt Q96CS4 1-500)
3 | binds | binds | ZNF485 (from UniProt Q8NCK3 1-441)
4 | binds | binds | ZNF764 (from UniProt Q96H86 1-408)
5 | binds | binds | ZNF34 (from UniProt Q8IZ26 1-560)
6 | binds | binds | ZNF670 (from UniProt Q9BS34 1-389)
7 | binds | binds | ZNF566 (from UniProt Q969W8 1-418)
8 | binds | binds | ZNF253 (from UniProt O75346 1-499)
9 | binds | binds | ZNF486 (from UniProt Q96H40 1-463)
10 | binds | binds | PABP1 (from UniProt P11940 1-636)
11 | binds | binds | CENPV (centromere protein V) (from UniProt Q7Z7K6 1-275)
12 | binds | binds | ZNF724 (from UniProt A8MTY0 1-619)
13 | binds |  | ZNF98 (from UniProt A6NK75 1-572)
14 | binds | binds | ZNF708 (from UniProt P17019 1-563)
15 | binds | binds | ZNF354A (from UniProt O60765 1-605)
16 | binds |  | ZNF140 (from UniProt P52738 1-457)
17 | binds | binds | ZNF816 (from UniProt Q0VGE8 1-651)
18 | binds | binds | ZNF195 (from UniProt O14628 1-629)
19 | binds | binds | ZNF90 (from UniProt Q03938 1-601)
20 | binds | binds | ZNF445 (from UniProt P59923 1-1031)
21 | binds | binds | ZNF808 (from UniProt Q8N4W9 1-903)
22 | binds | binds | ZNF8 (from UniProt P17098 1-575)

Row | binding [1] | binding [2] | Substance
23 | binds | binds | ZNF792 (from UniProt Q3KQV3 1-632)
24 | binds | binds | ZNF736 (from UniProt B4DX44 1-427)
25 | binds |  | HNRNP H (human (endogenous in K562))
26 | binds | binds | ZNF595 (from UniProt Q8IYB9 1-648)
27 | binds | binds | ZNF250 (from UniProt P15622 1-560)
28 | binds | binds | ZNF430 (from UniProt Q9H8G1 1-570)
29 | binds | binds | ZNF562 (from UniProt Q6V9R5 1-426)
30 | binds | binds | ZNF460 (from UniProt Q14592 1-562)
31 | binds | binds | ZNF160 (from UniProt Q9HCG1 1-818)
32 | binds | binds | ZNF74 (from UniProt Q16587 1-644)
33 | binds | binds | ZNF627 (from UniProt Q7L945 1-461)
34 | binds | binds | CBX1 (from UniProt P83916 1-185)
35 | binds |  | ZNF737 (from UniProt O75373 1-536)
36 | binds |  | ZNF182 (from UniProt P17025 1-639)
37 | binds | binds | ZNF77 (from UniProt Q15935 1-545)
38 | binds | binds | ZNF587 (from UniProt Q96SQ5 1-575)
39 | binds | binds | ZNF273 (from UniProt Q14593 1-569)
40 | binds | binds | ZNF324A (from UniProt O75467 1-553)
41 | binds | binds | transcription factor GATA1 (from UniProt P15976 1-413)
42 | binds | binds | ZNF274 (from UniProt Q96GC6 1-653)
43 |  | binds | ZNF813 (from UniProt Q6ZN06 1-617)
44 | binds | binds | ZNF728 (from UniProt P0DKX0 1-622)

Row | binding [1] | binding [2] | Substance
45 | binds | binds | ZNF92 (from UniProt Q03936 1-586)
46 |  | binds | ZFP82 (from UniProt Q8N141 1-532)
47 |  | binds | ZNF558 (from UniProt Q96NG5 1-402)
48 |  | binds | ZNF17 (from UniProt P17021 1-662)
49 |  | binds | ZNF22 (from UniProt P17026 1-224)
50 | binds | binds | ZNF432 (from UniProt O94892 1-652)
51 |  | binds | ZNF20 (from UniProt P17024 1-532)
52 |  | binds | ZNF563 (from UniProt Q8TA94 1-476)
53 | binds | binds | ZNF669 (from UniProt Q96BR6 1-464)
54 |  | binds | EHMT2 (from UniProt Q96KQ7 1-1210)
55 |  | binds | ZNF33A (from UniProt Q06730 1-810)
56 | binds | binds | ZNF688 (from UniProt P0C7X2 1-276)
57 | binds | binds | ZNF91 (from UniProt Q05481 1-1191)
58 | binds |  | ZNF878 (from UniProt C9JN71 1-531)
59 |  | binds | ZNF264 (from UniProt O43296 1-627)
60 |  | binds | ZNF726 (from UniProt A6NNF4 1-616)
61 |  | binds | ZNF543 (from UniProt Q08ER8 1-600)
62 | binds | binds | RBAK (from UniProt Q9NYW8 1-714)
63 | binds |  | ZNF626 (from UniProt Q68DY1 1-528)
64 | binds | binds | ZNF100 (from UniProt Q8IYN0 1-542)
65 |  | binds | ZNF320 (from UniProt A2RRD8 1-509)
66 | binds | binds | ZNF738 (from UniProt Q8NE65 1-375)

Row | binding [1] | binding [2] | Substance
67 |  | binds | ZNF41 (from UniProt P51814 1-821)
68 |  | binds | ZNF235 (from UniProt Q14590 1-738)
69 |  | binds | ZNF317 (from UniProt Q96PQ6 1-595)
70 |  | binds | ZKSC8 (from UniProt Q15776 1-578)
71 |  | binds | ZNF607 (from UniProt Q96SK3 1-696)
72 | binds | binds | ZNF417 (from UniProt Q8TAU3 1-575)
73 |  | binds | ZNF776 (from UniProt Q68DI1 1-518)
74 |  | binds | ZNF583 (from UniProt Q96ND8 1-569)
75 |  | binds | ZNF620 (from UniProt Q6ZNG0 1-422)
76 |  | binds | ZNF791 (from UniProt Q3KP31 1-576)
77 | binds | binds | ZNF267 (from UniProt Q14586 1-743)
78 | binds | binds | ZNF823 (from UniProt P16415 1-610)
79 | binds | binds | ZNF124 (from UniProt Q15973 1-351)
80 |  | binds | ZNF33B (from UniProt Q06732 1-778)
81 |  | binds | ZNF552 (from UniProt Q9H707 1-407)
82 |  | binds | ZNF699 (from UniProt Q32M78 1-642)
83 |  | binds | ZNF84 (from UniProt P51523 1-738)
84 |  | binds | ZNF227 (from UniProt Q86WZ6 1-799)
85 |  | binds | ZNF44 (from UniProt P15621 1-663)
86 | binds |  | ZNF681 (from UniProt Q96N22 1-645)
87 |  | binds | ZNF229 (from UniProt Q9UJW7 1-825)
